Laboratory results reported in PMC3046128, “Systematic Two-Hybrid and Comparative Proteomic Analyses Reveal Novel Yeast Pre-mRNA Splicing Factors Connected to Prp19” (PLoS ONE, 2011).
Like-named read-outs stand apart in the source and are kept apart here. Results are given in words; binding and its absence hold for the method and conditions named. Binding seen in cells or lysates may run through a third protein. Here binding means that the protein was enriched with, or labelled near, the bait; the list need not be complete. For some assays here: No binding means not detected with the bait. One block for each molecule: values may come before it.

Sequences of proteins named here, by UniProt entry; tags and fusion partners are left off. A change or cut given only in a name is not applied to a line headed by its entry.
UniProt Q9P7H6: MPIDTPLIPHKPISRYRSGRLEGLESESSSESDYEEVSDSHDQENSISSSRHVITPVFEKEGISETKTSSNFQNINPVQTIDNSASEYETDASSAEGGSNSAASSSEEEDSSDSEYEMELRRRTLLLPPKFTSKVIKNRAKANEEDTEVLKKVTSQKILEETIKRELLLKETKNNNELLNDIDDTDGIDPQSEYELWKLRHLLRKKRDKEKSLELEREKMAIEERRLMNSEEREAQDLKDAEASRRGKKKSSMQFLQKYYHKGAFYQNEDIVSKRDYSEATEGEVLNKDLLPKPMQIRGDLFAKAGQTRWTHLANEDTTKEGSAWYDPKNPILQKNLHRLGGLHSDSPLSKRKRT
UniProt Q12046: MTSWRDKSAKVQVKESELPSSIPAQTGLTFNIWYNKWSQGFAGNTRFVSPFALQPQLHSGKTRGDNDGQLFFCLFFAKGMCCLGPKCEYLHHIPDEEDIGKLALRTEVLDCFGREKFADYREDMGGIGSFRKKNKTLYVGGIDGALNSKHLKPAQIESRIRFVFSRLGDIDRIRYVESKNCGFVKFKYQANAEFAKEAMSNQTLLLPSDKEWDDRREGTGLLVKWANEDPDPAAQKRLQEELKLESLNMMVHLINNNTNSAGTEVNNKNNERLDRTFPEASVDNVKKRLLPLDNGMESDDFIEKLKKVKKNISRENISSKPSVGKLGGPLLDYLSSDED
UniProt O14097: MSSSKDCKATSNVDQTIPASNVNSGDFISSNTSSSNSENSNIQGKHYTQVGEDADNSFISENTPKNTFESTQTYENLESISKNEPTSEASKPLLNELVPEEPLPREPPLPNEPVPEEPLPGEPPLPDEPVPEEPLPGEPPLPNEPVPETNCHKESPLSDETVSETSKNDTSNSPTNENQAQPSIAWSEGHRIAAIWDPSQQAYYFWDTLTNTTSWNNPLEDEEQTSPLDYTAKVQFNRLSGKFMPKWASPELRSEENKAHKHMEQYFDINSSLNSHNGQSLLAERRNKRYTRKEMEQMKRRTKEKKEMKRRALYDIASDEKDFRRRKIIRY

Tests used:
[1] = target: T1, ScUrn1-TAP (S. cerevisiae) (UniProt Q06525); assay: affinity purification with mass spectrometry; TAP from S. cerevisiae strains, 2D-LC mass spectrometry, Myrimatch search
T1 sequence: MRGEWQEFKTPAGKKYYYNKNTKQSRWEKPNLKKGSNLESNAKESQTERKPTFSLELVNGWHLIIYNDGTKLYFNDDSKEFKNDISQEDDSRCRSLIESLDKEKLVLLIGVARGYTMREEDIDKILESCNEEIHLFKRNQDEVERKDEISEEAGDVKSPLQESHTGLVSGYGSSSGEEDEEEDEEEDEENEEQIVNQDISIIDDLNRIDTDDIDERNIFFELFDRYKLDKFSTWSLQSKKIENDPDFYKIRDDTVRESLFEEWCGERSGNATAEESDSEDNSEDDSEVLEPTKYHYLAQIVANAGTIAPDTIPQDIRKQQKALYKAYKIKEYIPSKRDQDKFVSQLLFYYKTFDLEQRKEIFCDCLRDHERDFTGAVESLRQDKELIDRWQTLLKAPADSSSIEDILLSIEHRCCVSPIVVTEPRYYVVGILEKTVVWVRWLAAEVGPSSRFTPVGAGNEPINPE

SpDre4-TAP (S. pombe) [2] = target: T2, SpDre4-TAP (S. pombe) (UniProt Q09685); assay: affinity purification with mass spectrometry; TAP from S. pombe strains, 2D-LC-MS/MS, SEQUEST search
T2 sequence: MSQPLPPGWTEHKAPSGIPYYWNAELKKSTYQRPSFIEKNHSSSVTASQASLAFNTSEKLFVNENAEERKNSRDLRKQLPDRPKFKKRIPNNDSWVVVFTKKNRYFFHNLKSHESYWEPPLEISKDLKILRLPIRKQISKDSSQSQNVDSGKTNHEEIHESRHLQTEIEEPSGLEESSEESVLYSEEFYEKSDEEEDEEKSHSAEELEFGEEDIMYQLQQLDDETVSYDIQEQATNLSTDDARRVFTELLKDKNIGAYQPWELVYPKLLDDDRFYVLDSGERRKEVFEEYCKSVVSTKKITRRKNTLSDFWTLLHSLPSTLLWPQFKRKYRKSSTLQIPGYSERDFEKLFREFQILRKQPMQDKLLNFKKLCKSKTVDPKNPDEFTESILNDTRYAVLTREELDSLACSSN

[3] = target: T1, ScUrn1-TAP (S. cerevisiae); assay: affinity purification with mass spectrometry; TAP from S. cerevisiae strains, 2D-LC mass spectrometry, Myrimatch search; remark: listed apart in the source
SpDre4-TAP (S. pombe) [4] = target: T2, SpDre4-TAP (S. pombe); assay: affinity purification with mass spectrometry; TAP from S. pombe strains, 2D-LC-MS/MS, SEQUEST search; remark: listed apart in the source
[5] = target: SpSaf3, epitope-tagged at the endogenous locus (S. pombe) (UniProt Q9P7H6); assay: as above
Aim4-TAP (S. cerevisiae) = target: T3, Aim4-TAP (S. cerevisiae) (UniProt P38305); assay: affinity purification with mass spectrometry; TAP from S. cerevisiae strains, 2D-LC mass spectrometry, Myrimatch search
T3 sequence: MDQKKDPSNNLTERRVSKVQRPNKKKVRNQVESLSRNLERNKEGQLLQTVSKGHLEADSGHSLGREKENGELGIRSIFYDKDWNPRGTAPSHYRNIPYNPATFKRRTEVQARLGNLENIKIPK

SpPrp17-TAP (S. pombe) = target: T4, SpPrp17-TAP (S. pombe) (UniProt O43071); assay: affinity purification with mass spectrometry; TAP from S. pombe strains, 2D-LC-MS/MS, SEQUEST search
T4 sequence: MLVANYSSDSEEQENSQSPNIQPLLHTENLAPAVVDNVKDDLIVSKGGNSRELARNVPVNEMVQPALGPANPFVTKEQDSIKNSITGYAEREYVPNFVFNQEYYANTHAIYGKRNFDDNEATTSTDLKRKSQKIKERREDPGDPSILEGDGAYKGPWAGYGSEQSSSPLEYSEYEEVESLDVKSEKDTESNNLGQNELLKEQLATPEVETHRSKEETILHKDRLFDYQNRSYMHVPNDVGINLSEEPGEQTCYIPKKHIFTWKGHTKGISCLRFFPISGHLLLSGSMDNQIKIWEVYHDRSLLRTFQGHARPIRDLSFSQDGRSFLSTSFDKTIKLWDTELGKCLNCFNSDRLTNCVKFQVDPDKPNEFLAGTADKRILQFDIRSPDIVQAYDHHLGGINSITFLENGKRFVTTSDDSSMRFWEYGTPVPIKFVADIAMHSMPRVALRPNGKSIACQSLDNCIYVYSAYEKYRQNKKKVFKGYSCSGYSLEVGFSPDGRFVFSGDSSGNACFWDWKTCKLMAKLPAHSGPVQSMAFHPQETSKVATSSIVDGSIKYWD

Molecule: S. pombe Saf3 (endogenous) (from UniProt Q9P7H6)
- binding (SpDre4-TAP (S. pombe) [2]): binds

B2: S. pombe Prp19 (endogenous) (protein, UniProt O14011 1-488)
chain: MFCSISGETPKEPVISRVSGNVYEKRLIEQVIRETSKDPVTQQECTLEDLVPVKVPDFVRPRPPSATSLPALLSLFQEEWDSVALEQFELRRNLTETKQELSTALYSLDAALRVISRLTKERDEAREALAKFSDNIGTVSSKTIEVQEVEMGESDDQLKTSLRSTVEKTFQELSSKRKRTKLQPKWATDDAVSQLLQATPSTILENLETESTTSFFPSPENSSFVLCLHKDELLCLDIQSNSTLKIFEGSALACCWLTSSKIAVATADAISIFEFPVSSSGLQSVGEPTSSIPIDEKVNFLQAHPSGEYLLAASNEKCYIFSLKSQVYNITVAQHITSLAVHPDGNLFVAGLENGELRFFETSSGNELTKFGPHSSPVKTLQFGENGYWLVVTTNDDSDIFIWDLRKSELVQKIPLQTKVAAVSLDITSQLLVSSDGETLYVHIYVKSSKSWRCMSQTHVSSISNLVWLNELHQLLFSTSNGAILRLG
- binding (SpDre4-TAP (S. pombe) [4]): binds

B3: S. pombe Snu23 (endogenous) (protein, UniProt Q09776 1-174)
chain: MDRYNPPRRNGNSKKNEVVITGGRTQRIDFEKDVNKTTILPPAGASVGRRGRGAGWYCEACNETYKDSLSWLDHLNSTQHLRKTRTVIIEKRATLEEVKERMEYWRRQLLEPEKGSEEYSLKERVERYHQELEAKKLRRKQKKVNKEKNSPRLVGENTELAAIMGISSFGSTNL
- binding [5]: binds

B4: His6-ScUrn1 (natural protein, S. cerevisiae, UniProt Q06525 1-465, looked up)
chain: MRGEWQEFKTPAGKKYYYNKNTKQSRWEKPNLKKGSNLESNAKESQTERKPTFSLELVNGWHLIIYNDGTKLYFNDDSKEFKNDISQEDDSRCRSLIESLDKEKLVLLIGVARGYTMREEDIDKILESCNEEIHLFKRNQDEVERKDEISEEAGDVKSPLQESHTGLVSGYGSSSGEEDEEEDEEEDEENEEQIVNQDISIIDDLNRIDTDDIDERNIFFELFDRYKLDKFSTWSLQSKKIENDPDFYKIRDDTVRESLFEEWCGERSGNATAEESDSEDNSEDDSEVLEPTKYHYLAQIVANAGTIAPDTIPQDIRKQQKALYKAYKIKEYIPSKRDQDKFVSQLLFYYKTFDLEQRKEIFCDCLRDHERDFTGAVESLRQDKELIDRWQTLLKAPADSSSIEDILLSIEHRCCVSPIVVTEPRYYVVGILEKTVVWVRWLAAEVGPSSRFTPVGAGNEPINPE
notes: Urn1, S. cerevisiae (His6-ScUrn1 mass 55.1 kDa); the printed mass fits the whole protein; also called His6-Urn1; source: E. coli BL21 (pETDuet-1), co-expressed with ScPrp19, purified (Ni-NTA agarose, heparin agarose, gel filtration)
- binding (Aim4-TAP (S. cerevisiae)): binds

B7: S. cerevisiae Aim4 (endogenous) (protein, UniProt P38305 1-123)
chain: MDQKKDPSNNLTERRVSKVQRPNKKKVRNQVESLSRNLERNKEGQLLQTVSKGHLEADSGHSLGREKENGELGIRSIFYDKDWNPRGTAPSHYRNIPYNPATFKRRTEVQARLGNLENIKIPK
- binding [3]: binds

Results, then the molecule that gave them:

- binding [1]: no binding
Molecule: S. cerevisiae Cwc2 (endogenous) (from UniProt Q12046 1-339)

- binding (SpDre4-TAP (S. pombe) [2]): binds
Molecule: S. pombe Saf2 (endogenous) (from UniProt O14097)

- binding [3]: no binding
B1: S. cerevisiae Prp17 (endogenous) (protein, UniProt P40968 1-455)
chain: MGLVDGYDTSSDSDLNFDEGKSVHEKKNGNLHEDTSYEPSSNNIHKRKSHFTKSELKRRRKTRKGDGPWGSWSSSDDETSQASETQKEDQDIFVHALAEDNLDSEQIEVEEVSHFYGKSEKDYQGRGYLYPPNDVDVDLREERISFRCYLPKKVIRNYPGHPEGTTALKFLPKTGHLILSGGNDHTIKIWDFYHDYECLRDFQGHNKPIKALRFTEDCQSFLSSSFDRSVKIWDTETGKVKTRLHLNSTPADVESRPTNPHEFIVGLSNSKILHYDDRVSENQGLVQTYDHHLSSILALKYFPDGSKFISSSEDKTVRIWENQINVPIKQISDTAQHSMPFLNVHPSQNYFCAQSMDNRIYSFSLKPKYKRHPKKIFKGHSSAGYGISLAFSGDGRYICSGDSKSRLFTWDWNTSRLLNNIKIPGNKPITQVDWHPQETSKVICSGAAGKIYVCD

- binding [5]: binds
B5: S. pombe Prp38 (endogenous) (protein, UniProt Q9UUD2 1-210)
chain: MADFLARDYRSQGEAAHEMLPTFLIGKILRERIVDSIYWKEQCFGLNACSLVDRAVRLEYIGGQYGNQRPTEFICLLYKLLQIAPEKEIIQQYLSIPEFKYLRALAAFYVRLTWDDVEVHQTLEPLLRDYRKLRIRTNSEIRLTYLDEVVDDLLNAEVVCDISLPPLRSRLQLEDLDLLEPLSSSSDEEDDDEEQISKLESNEGAVDRNI

- binding (SpPrp17-TAP (S. pombe)): no binding
- binding (SpDre4-TAP (S. pombe) [4]): binds
B6: S. pombe Saf1 (endogenous) (protein, UniProt O74517 1-278)
chain: MLSKRGLNPVQAESRKKKKREQIKVREERAKRHEERLSHRNMSQMERQLSELTQLESSQALNAHDKQLLQNLQRDMAIMKKKNIHGHRVGRVESDKTKEAERQHKPRKPFIPKNPKRSIYYDPIFNPYGVPPPGMPYREKEELSSETDESVIDIPLPSEEYPFEDPKPREKKNKSFKPKHHKKQDINASSAQPKSTTTTEAAANTKDIEEETMIEYSAQPVVRDLRQEAAQFLPAAFQRQKLAKGQKIGQPDRDVSSQVQEDKDEEIDNFYKEIGGYL
